The other results are listed elsewhere or left out.
Columns and labels:
Test in all cases: glycan array binding signal (z-score within array); higher = stronger binding
Conditions in all cases: glycan notation: IUPAC condensed, linker removed
[1] = molecular target: Fuc(a1-2)[Gal(a1-3)]Gal(b1-4)GlcNAc(b1-2)Man(a1-3)[Fuc(a1-2)[Gal(a1-3)]Gal(b1-4)GlcNAc(b1-2)Man(a1-6)]Man(b1-4)GlcNAc(b1-4)[Fuc(a1-6)]GlcNAc
In short: (§1)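 The binding signal is a Z-score computed within each array and averaged over linkers. Arrays of the same protein sequence at different concentrations or buffers were also averaged together. Data originate from 3228 arrays in the Consortium for Functional Glycomics database, kept only where the protein sequence was available.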

[2] = molecular target: Fuc(a1-2)[Gal(a1-3)]Gal(b1-4)GlcNAc(b1-3)GalNAc
In short: as §1

[3] = molecular target: Fuc(a1-2)[Gal(a1-3)]Gal(b1-4)GlcNAc(b1-6)GalNAc
In short: as §1

[4] = molecular target: Fuc(a1-2)[Gal(a1-3)]Gal(b1-4)[Fuc(a1-3)]Glc
In short: as §1

[5] = molecular target: Fuc(a1-2)[Gal(a1-3)]Gal(b1-4)[Fuc(a1-3)]GlcNAc
In short: as §1

[6] = molecular target: Fuc(a1-2)[Gal(a1-3)]Gal(b1-4)[Fuc(a1-3)]GlcNAc(b1-3)GalNAc
In short: as §1

[7] = molecular target: Fuc(a1-2)[Gal(a1-4)]Gal(b1-4)GlcNAc
In short: as §1

[8] = molecular target: Fuc(a1-2)[GalNAc(a1-3)]Gal
In short: as §1

[9] = molecular target: Fuc(a1-2)[GalNAc(a1-3)]Gal(b1-3)GalNAc(a1-3)[Fuc(a1-2)]Gal(b1-4)GlcNAc
In short: as §1

[10] = molecular target: Fuc(a1-2)[GalNAc(a1-3)]Gal(b1-3)GalNAc(b1-3)Gal(a1-4)Gal(b1-4)Glc
In short: as §1

[11] = molecular target: Fuc(a1-2)[GalNAc(a1-3)]Gal(b1-3)GlcNAc
In short: as §1

[12] = molecular target: Fuc(a1-2)[GalNAc(a1-3)]Gal(b1-3)GlcNAc(b1-2)Man(a1-3)[Fuc(a1-2)[GalNAc(a1-3)]Gal(b1-3)GlcNAc(b1-2)Man(a1-6)]Man(b1-4)GlcNAc(b1-4)GlcNAc
In short: as §1

[13] = molecular target: Fuc(a1-2)[GalNAc(a1-3)]Gal(b1-3)GlcNAc(b1-2)Man(a1-3)[Fuc(a1-2)[GalNAc(a1-3)]Gal(b1-3)GlcNAc(b1-2)Man(a1-6)]Man(b1-4)GlcNAc(b1-4)[Fuc(a1-6)]GlcNAc
In short: as §1

[14] = molecular target: Fuc(a1-2)[GalNAc(a1-3)]Gal(b1-3)GlcNAc(b1-3)GalNAc
In short: as §1

[15] = molecular target: Fuc(a1-2)[GalNAc(a1-3)]Gal(b1-3)GlcNAc(b1-6)GalNAc
In short: as §1

[16] = molecular target: Fuc(a1-2)[GalNAc(a1-3)]Gal(b1-4)Glc
In short: as §1

[17] = molecular target: Fuc(a1-2)[GalNAc(a1-3)]Gal(b1-4)GlcNAc
In short: as §1

[18] = molecular target: Fuc(a1-2)[GalNAc(a1-3)]Gal(b1-4)GlcNAc(b1-2)Man
In short: as §1

[19] = molecular target: Fuc(a1-2)[GalNAc(a1-3)]Gal(b1-4)GlcNAc(b1-2)Man(a1-3)[Fuc(a1-2)[GalNAc(a1-3)]Gal(b1-4)GlcNAc(b1-2)Man(a1-6)]Man(b1-4)GlcNAc(b1-4)GlcNAc
In short: as §1

[20] = molecular target: Fuc(a1-2)[GalNAc(a1-3)]Gal(b1-4)GlcNAc(b1-2)Man(a1-3)[Fuc(a1-2)[GalNAc(a1-3)]Gal(b1-4)GlcNAc(b1-2)Man(a1-6)]Man(b1-4)GlcNAc(b1-4)[Fuc(a1-6)]GlcNAc
In short: as §1

[21] = molecular target: Fuc(a1-2)[GalNAc(a1-3)]Gal(b1-4)GlcNAc(b1-3)Gal(b1-4)GlcNAc
In short: as §1

[22] = molecular target: Fuc(a1-2)[GalNAc(a1-3)]Gal(b1-4)GlcNAc(b1-3)Gal(b1-4)GlcNAc(b1-3)Gal(b1-4)GlcNAc
In short: as §1

[23] = molecular target: Fuc(a1-2)[GalNAc(a1-3)]Gal(b1-4)GlcNAc(b1-3)GalNAc
In short: as §1

[24] = molecular target: Fuc(a1-2)[GalNAc(a1-3)]Gal(b1-4)GlcNAc(b1-3)[Fuc(a1-2)[GalNAc(a1-3)]Gal(b1-4)GlcNAc(b1-6)]GalNAc
In short: as §1

[25] = molecular target: Fuc(a1-2)[GalNAc(a1-3)]Gal(b1-4)GlcNAc(b1-6)GalNAc
In short: as §1

[26] = molecular target: Fuc(a1-2)[GalNAc(a1-3)]Gal(b1-4)[Fuc(a1-3)]GlcNAc
In short: as §1

[27] = molecular target: Fuc(a1-2)[GalNAc(a1-3)]Gal(b1-4)[Fuc(a1-3)]GlcNAc(b1-3)GalNAc
In short: as §1

[28] = molecular target: Fuc(a1-2)[GalNAc(a1-4)]Gal(b1-4)GlcNAc
In short: as §1

[29] = molecular target: Fuc(a1-2)[GalNAc(b1-3)]Gal
In short: as §1

Fuc(a1-3)GlcNAc = molecular target: Fuc(a1-3)GlcNAc
In short: as §1

B1: Blon0732mut (Bifidobacterium longum) (protein)
chain: MPTSEHKADDATRHLTLIPAPVTLEYTHGTALIGPLVTIEDADQSWETLPIEQLSDELRHRYGVTVLRRRTHGTVISLGLDSRLAHDEYTLDVSESEGIRVRGGGESGLRYGLQTLRQIIGQTSRAIPCLHIQDKPAFAVRAYSLDVTRGRVPTMEFLTWFVDQLALYKYNQFQLYVEHAFAFVELSEAWRGTDPLTAADITYLDEYCARRGIELVPSLATFGHMYMNLRTREHRGLGEFPEDADRPFSFIERMEHHTLNAADPKAHDFASRLIEEYAPLFRSKSFNIGGNETFDLGRGRSAQDAPEAGRDELYAGFVRDLCETLARHGRQPMLWADIALESPRTMDLLPGDITMLNWMYEPQIDESKIQTIATQGRRQFVCPAVRAWSRFFPDYAGAWLNTYHMALAGTKYDAEGMVVTDWGDYGHVNDPRLSVPGLCYGAQNAWNPIEIDAHEMNRRISALVYGDESGRIMDCLARIDSDGVSFPWDLAVQVLELEYGSGTGALNMDVAACMERSSGGKLTLDRTLGCDDARRRMLQWNRERIERRRDCDQVLRDCGDAFAGLDKGGLTAEFLSVMLDGQRLFNELGEELLALADGKDVGSGANRLAADLELWFERYRAQWLSVGRHAELARIAHVVWSLADILRRGAL
glycan array binding signal (z-score) [1]: -0.644
glycan array binding signal (z-score) [2]: -0.533
glycan array binding signal (z-score) [3]: 0.06
glycan array binding signal (z-score) [4]: 0.392
glycan array binding signal (z-score) [5]: -0.131
glycan array binding signal (z-score) [6]: -0.971
glycan array binding signal (z-score) [7]: 1.94
glycan array binding signal (z-score) [8]: -0.124
glycan array binding signal (z-score) [9]: -0.026
glycan array binding signal (z-score) [10]: -1.01
glycan array binding signal (z-score) [11]: -0.382
glycan array binding signal (z-score) [12]: -0.632
glycan array binding signal (z-score) [13]: 0.408
glycan array binding signal (z-score) [14]: -0.538
glycan array binding signal (z-score) [15]: -0.809
glycan array binding signal (z-score) [16]: -0.005
glycan array binding signal (z-score) [17]: 0.684
glycan array binding signal (z-score) [18]: -1.17
glycan array binding signal (z-score) [19]: 0.397
glycan array binding signal (z-score) [20]: -0.011
glycan array binding signal (z-score) [21]: -0.48
glycan array binding signal (z-score) [22]: 0.035
glycan array binding signal (z-score) [23]: -1.2
glycan array binding signal (z-score) [24]: -0.86
glycan array binding signal (z-score) [25]: -0.326
glycan array binding signal (z-score) [26]: 1.44
glycan array binding signal (z-score) [27]: 1.75
glycan array binding signal (z-score) [28]: -0.527
glycan array binding signal (z-score) [29]: 0.44
glycan array binding signal (z-score) (Fuc(a1-3)GlcNAc): -0.438

Source: the supplement of paper PMC8728848
